In PubChem BioAssay AID2685 (National Center for Advancing Translational Sciences (NCATS), 2010):
This is one part of the list. The main result of the screen is listed elsewhere. These columns were measured beside it and carry no call. Compounds called inactive in the main read-out are mostly missing here. Potencies come from curve fits of mixed quality, noted in brackets.

Experiment: qHTS Assay for Lipid Storage Modulators in Drosophila S3 Cells;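 on cell number change: cells counted by Cell Tracker Red CMTPX staining in the red channel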
Conditions: BODIPY lipid droplet fluorescence, 18-24 h; for cell number change: measured here: cell count max response, cells fed with added oleic acid
Summary of the method: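 Drosophila S3 cells loaded with oleic acid (400 uM, as added) and compounds at several concentrations; lipid droplets imaged by 488-nm laser-scanning cytometry, 500–530 nm intensity and object ratio to cell channel. Percent activity normalized to 20 uM Triacsin C.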

[1] = measured here: cell number channel AC50, cells fed with added oleic acid
[2] = measured here: lipid fluorescence (Fed channel) AC50, cells fed with added oleic acid

Row | Structure (SMILES) | cell number change | AC50 [1] | AC50 [2]
1 | CC(C)Cc1nnc(NC(=O)c2cc(S(=O)(=O)N(C)C)ccc2N2CCCC2)s1 | 34.6% | 29.1 µM [rising, partial curve, poor fit] | –
2 | O=C(c1cnn2c(C(F)F)cc(-c3ccccc3)nc12)N1CCN2CCCC2C1 (centres undefined) | 3.98% | – | –
3 | COc1ccc(Br)cc1CN1C(=O)NC2(CCCCCC2)C1=O | 5.71% | – | –
4 | O=C(O)CCN1C(=O)/C(=C\c2ccc(-c3nc4ccccc4s3)o2)SC1=S | 22.9% | – | 0.651 µM [falling, full curve]
5 | CCOc1ccc(OCCC(=O)NNC(=O)c2cc(C)oc2C)cc1 | -12% | – | 0.00461 µM [rising, full curve, poor fit]
6 | Cc1cc(Cl)cc(Cl)c1OCCCCN(C)C | 13.7% | – | 2.06 µM [rising, full curve]
7 | O=S(=O)(NCc1cccs1)c1cccc2cccnc12 | – | – | 0.092 µM [falling, full curve, poor fit]
8 | Cc1cc(C(=O)N/N=C/c2cccc(OC(=O)c3cccc(Br)c3)c2)n[nH]1 | -21% | – | 6.51 µM [rising, single point]
9 | c1ccc(Nc2nnc(-c3cccc4ccccc34)o2)cc1 | 5.58% | – | 7.31 µM [rising, single point]
10 | COC(=O)c1cc(C)nc(N)c1C#N | -62.1% | 29.1 µM [falling, single point] | 0.82 µM [falling, full curve, poor fit]
11 | Cc1cccnc1NC(=O)CCNC(=O)c1ccc(Br)cc1 | -2.27% | – | –
12 | COc1ccc(CN2CCNC(=O)C2CC(=O)NCc2ccc(C)s2)c(OC)c1 (centres undefined) | -5.13% | 0.651 µM [falling, single point] | 0.461 µM [falling, partial curve, poor fit]
13 | COc1ccc(/C=N/NC(=O)CCCC(=O)NC2CCCCC2)cc1 | -11.2% | – | 0.731 µM [rising, full curve, poor fit]
14 | COc1ccc(C2(CCN)CC(C)N(C)CC2C)cc1 (centres undefined) | 4.79% | – | 20.6 µM [rising, partial curve, poor fit]
15 | C/C(=N\NC(=O)c1cccc(Br)c1)c1ccc(Br)cc1 | 18.7% | – | –
16 | CC(C)NC(=O)CSc1nc(Cc2ccccc2)nc2ccccc12 | -8.8% | – | 0.116 µM [rising, full curve, poor fit]
17 | COc1cc(-n2c(C)nc3cc(C(=O)NCCN4CCOCC4)ccc32)cc(OC)c1OC | 3.49% | 0.651 µM [falling, single point] | –
18 | COc1cccc(NC(=S)N2c3ccccc3CC2C)c1 (centres undefined) | -31.2% | 8.2 µM [falling, single point] | –
19 | CC(=O)n1cc(N(C(=O)CCl)c2ccc([N+](=O)[O-])cc2)c2ccccc21 | -31.4% | 20.6 µM [falling, single point] | 29.1 µM [falling, single point]
20 | O=C1NC2(CCCCC2)N=C1c1ccc(F)cc1 | 13.3% | – | 0.58 µM [falling, full curve]
21 | COC(=O)c1ccc(C(=O)OC)c(NC(=S)N2CCCC2)c1 | 29.1% | – | 0.58 µM [rising, partial curve]

Row | Structure (SMILES) | cell number change | AC50 [1] | AC50 [2]
22 | CN1CCN(CC(=O)Nc2ccc([N+](=O)[O-])cc2Br)CC1 | 17% | – | 35.5 µM [rising, single point]
23 | CC12CN3CC(C)(CN(C1)C3c1cc(Br)ccc1O)C2=O (centres undefined) | 7.34% | – | 6.51 µM [rising, full curve]
24 | CCOC(=O)CNC(=O)C1CCN(S(=O)(=O)c2ccc(-c3nn[nH]n3)cc2)CC1 | 17.5% | – | 29.1 µM [rising, single point]
25 | COc1ccc(C)cc1NC(=O)CN1C(=O)c2ccccc2S1(=O)=O | -1.29% | – | 4.11 µM [rising, single point]
26 | Cn1nnnc1SCC(=O)N1CCc2ccccc2C1 | 0.559% | – | 0.206 µM [falling, full curve, poor fit]
27 | C=CCNc1oc(-c2cccs2)nc1C#N | 33% | 29.1 µM [rising, single point] | 29.1 µM [rising, single point]
28 | CCC(C(=O)NC1CCCC1)N(C(=O)Cn1nnc(-c2ccc(C)o2)n1)c1ccc(OC)cc1 (centres undefined) | 10% | – | –
29 | CC(C)CC(NC(=O)CCl)c1ccccc1 (centres undefined) | – | – | 2.91 µM [falling, full curve]
30 | COc1ccc(C2=NOC(C(=O)NC(C)(C)C)C2)cc1 (centres undefined) | 40.6% | 2.31 µM [rising, full curve] | –
31 | Cc1ccccc1C(=O)NC1CCN(C(=O)NCc2ccccc2)CC1 | -0.901% | – | –
32 | Cc1onc(-c2ccccc2Cl)c1C(=O)NCCN1CCOCC1 | 10.9% | 0.326 µM [rising, full curve] | –
33 | COc1cc(NC(=O)c2ccccc2)c(OC)cc1NC(=O)CN1CCOCC1 | 15.2% | 0.00411 µM [rising, full curve, poor fit] | –
34 | O=C(NCC1CCCO1)c1cc2c([nH]c3ccccc32)c(-c2ccc(F)cc2)n1 (centres undefined) | -16.6% | – | 29.1 µM [falling, single point]
35 | CC(=O)Nc1ccc(S(=O)(=O)N2CCN(Cc3cccnc3)CC2)cc1 | – | – | 6.51 µM [falling, single point]
36 | CCOc1cc(/C=C2/NC(=S)NC2=O)ccc1OCc1ccc([N+](=O)[O-])cc1 | -94.2% | – | 23.1 µM [falling, single point]
37 | CCS(=O)(=O)c1ccc2oc(SCC(=O)NC34CC5CC(CC(C5)C3)C4)nc2c1 | 74.2% | 7.31 µM [rising, full curve] | –
38 | COCCNC(=O)CSc1nc2cc3c(cc2c(=O)n1Cc1ccco1)OCO3 | 3.16% | – | 0.206 µM [rising, single point]
39 | C=CCOC(=O)C1=C(C)NC(C)=C(C(=O)OCC=C)C1/C=C/c1ccccc1 | -46.7% | 16.4 µM [falling, single point] | 18.4 µM [falling, single point]
40 | O=C1c2ccccc2C(=O)N1c1cc([N+](=O)[O-])ccn1 | 4.74% | – | –
41 | COc1ccc(CNC(=O)CNC(c2ccccc2)c2ccccc2)cc1OC | 18.8% | – | –
42 | CCOc1ccc(NC(=O)CCC(=O)c2ccc(F)cc2)cc1 | 11% | – | 3.66 µM [rising, full curve]

Row | Structure (SMILES) | cell number change | AC50 [1] | AC50 [2]
43 | CCOC(=O)c1cccc2c(=O)c(C(=O)c3ccc(Cl)cc3)c(C(=O)OC)[nH]c12 | -15.2% | – | –
44 | C/C(=N/NC(=O)CNc1ccc(C)cc1)c1ccc(Cl)cc1 | – | 2.91 µM [rising, single point] | 3.66 µM [rising, partial curve]
45 | NC1=NC(=Nc2cccc(S(=O)(=O)N3CCOCC3)c2)c2ccccc21 | 21.9% | – | –
46 | Cc1cccc(C)c1NC(=O)CNC(=O)c1ccc2ccccc2n1 | -7.5% | – | 0.058 µM [rising, full curve, poor fit]
47 | C/C(=N\NC(=S)NCc1ccccc1)c1ccc(Cl)s1 | 51.5% | – | –
48 | O=c1cnnc(NCc2ccccc2)[nH]1 | 13.4% | – | –
49 | CCCCn1c(=O)[nH]c(=O)c2c1nc(-c1ccncc1)n2CCOC | – | 2.31 µM [rising, partial curve] | –
50 | COc1ccc(N2CCN(S(=O)(=O)c3ccc4c(c3)N(C(C)=O)CCO4)CC2)cc1 | – | – | 6.51 µM [rising, single point]
51 | COc1ccc(CCNC(=O)CCc2ccc(S(=O)(=O)NC(C)C)cc2)cc1OC | 0.74% | – | 0.651 µM [falling, full curve, poor fit]
52 | Cc1ccccc1C(=O)c1cccn1CC(=O)NCCN1CCN(c2cccc(C)c2C)CC1 | -64.1% | 29.1 µM [falling, single point] | –
53 | COc1ccc(S(=O)(=O)N2CCOCC2)cc1NC(=O)CSc1nnc2ccccn12 | 5.28% | – | –
54 | N#Cc1ccc(OCc2nnc(-c3ccc([N+](=O)[O-])cc3)o2)cc1 | 102% | – | 23.1 µM [rising, partial curve, poor fit]
55 | CC1=C(C(=O)Nc2ccc(C)cn2)C(c2cnn(C)c2)C2=C(CCCC2=O)N1 (centres undefined) | 26.5% | – | 14.6 µM [rising, partial curve, poor fit]
56 | COC(=O)C1CCN(C(=O)/C=C/c2ccccc2)CC1 | 2.87% | – | 13 µM [rising, single point]
57 | Cc1ccc(/C(C#N)=C\c2ccc(N3CCOCC3)o2)cc1 | -145% | 18.4 µM [falling, single point] | 29.1 µM [falling, single point]
58 | C#CCOCCOCCOCCNc1nc(N2CCN(C(=O)CCCCCCCCCCNC(=O)Cn3cc(C[C@@H](C)O)nn3)CC2)nc(N2CCN(C(=O)CCCCCCCCCCNC(=O)[C@H](CCCN=C(N)N)n3cc(C[C@@H](C)CC)nn3)CC2)n1 | -37.7% | 29.1 µM [falling, single point] | 29.1 µM [falling, single point]
59 | CCOP(=O)(OCC)c1nc(-c2ccc(Cl)cc2Cl)oc1N1CCOCC1 | – | – | 7.31 µM [rising, single point]
60 | COc1ccc(-c2cc3c(=O)n(CC(=O)N4CCCC4)ncn3n2)cc1 | 18.3% | – | 9.2 µM [falling, single point]
61 | O=S(=O)(c1ccc(NC(=S)NCc2ccc(F)cc2)cc1)N1CCOCC1 | – | – | 29.1 µM [falling, single point]
62 | Cn1c(COc2ccccc2)nnc1SCC(=O)Nc1ccc(S(N)(=O)=O)cc1 | 63.8% | 18.4 µM [rising, partial curve] | –
63 | COc1ccc(C(=O)/C=C/c2cc(OC)c(O)c(OC)c2)c(F)c1 | -69.8% | 0.164 µM [falling, partial curve, poor fit] | 25.9 µM [falling, partial curve]

4 neighbouring entries out of the list so far, for reference:
Row | Structure (SMILES) | cell number change | AC50 [1] | AC50 [2]
28 | CCC(C(=O)NC1CCCC1)N(C(=O)Cn1nnc(-c2ccc(C)o2)n1)c1ccc(OC)cc1 (centres undefined) | 10% | – | –
29 | CC(C)CC(NC(=O)CCl)c1ccccc1 (centres undefined) | – | – | 2.91 µM [falling, full curve]
30 | COc1ccc(C2=NOC(C(=O)NC(C)(C)C)C2)cc1 (centres undefined) | 40.6% | 2.31 µM [rising, full curve] | –
31 | Cc1ccccc1C(=O)NC1CCN(C(=O)NCc2ccccc2)CC1 | -0.901% | – | –
